According to PubChem BioAssay AID488966 (Southern Research Specialized Biocontainment Screening …, 2010):
Hit rate of the full screen: of about 340,000 compounds, about 55 (0.02%) were called active. This list was built around the results that the source calls inconclusive (neither active nor inactive); the mix of calls is not that of the screen.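 How the source made its calls: active means phage lysis inhibition, versus mean bacterial control, above a set limit; inconclusive means no clear call, values can overlap the other calls; inactive means the rest.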

Assay: protection from phage-mediated lysis, alamar blue read-out – E. coli UTI89, K1F phage, bacterial capsule biogenesis inhibitors (AID 488966);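 further: capsule biogenesis inhibitors block K1F phage lysis so surviving cells raise fluorescence; higher fluorescence means more inhibition of phage lysis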
Conditions: 2 h; inhibition: at 100 µM, hits give high values unless noted; series mostly up to 300 µM

SMILES	inhibition
COc1cccc2nc3c(C(=O)NCCN(C)C)cccc3cc12	inconclusive: 20.1%
CN1CCC[C@@H]1CCO[C@](C)(c1ccccc1)c1ccc(Cl)cc1	inconclusive: 19.2%
CC1CCCCC1NC(=O)c1cc(=O)[nH]c2ccccc12 (configuration not stated)	inconclusive: 16.6% [at 50 µM, hits give high values]
Cc1ccc(NC(=O)CCC(=O)NNC(=O)COc2cccc3ccccc23)c(C)c1	inactive: -0.27%
CCCC[C@H](CN[C@@H](CNC)[C@H](C)CC)NCCC12CCC(CC1)C2	inconclusive: 17.8%
COc1ccc(-c2c(C)oc3c(CN4CCOCC4)c(O)ccc3c2=O)cc1	inactive: 0.06%
C=CC[C@@H](CC(=O)N[C@H](CO)Cc1ccccc1)C(=O)N[C@@H](COC(=O)[C@H](CC=C)CC(=O)OC(C)(C)C)Cc1ccccc1	inconclusive: 15.2%
CCC1(O)CC2CN(CCc3c([nH]c4ccccc34)C(C(=O)OC)(c3cc4c(cc3OC)N(C=O)C3C(O)(C(=O)OC)C(OC(C)=O)C5(CC)C=CCN6CCC43C65)C2)C1 (configuration not stated)	inconclusive: 18.6%
COC(=O)C1=C(C)N(C)C(C)=C(C(=O)OC)C1c1ccccc1C	inconclusive: 17.4%
S=C(NNc1ccnc2cc(Cl)ccc12)Nc1ccccc1Cl	inconclusive: 15%
Cc1ccccc1CN1CCN(CCCc2ccccc2)C(CCO)C1 (configuration not stated)	inactive: 0.26%
CCOc1ccc(-n2c(C)cc(/C=C3/C(=N)N4C(=NC3=O)SN=C4S(C)(=O)=O)c2C)cc1	inconclusive: 20.4%
CS(=O)(=O)N(CC(=O)NN=C1CCCCCC1)c1ccc(Oc2ccccc2)cc1	inactive: 0.37%
CCCOc1ccc(C(=O)O)cc1	inactive: -0.2%
CC1CCN(C(=O)c2cc3nc(-c4ccccc4)cc(-c4ccccc4)n3n2)CC1	inconclusive: 15.2%
COc1ccc(NS(=O)(=O)c2ccc3c(c2)N(C(C)=O)CCO3)c(OC)c1	inconclusive: 52.4%
C/C(=N\NC(=O)c1nc(C)cc(C)n1)c1ccccc1	inconclusive: 16.9%
Cc1ccc(-n2cc(-c3ccc([N+](=O)[O-])cc3)[nH]c2=S)c(C)c1	inconclusive: 15.7%
CCCCC/C(=N\NC(=O)CCC(=O)NCc1ccccc1)c1ccccc1	inconclusive: 15.7%
Cn1nc(-c2ccc(Cl)cc2)c2cc(C(=O)N3CCN(c4ccccc4)CC3)sc21	inconclusive: 15.2%
COc1ccc(C(=O)Nc2nc3ccc(OC)cc3s2)cc1	inactive: 0.38%
NC(=O)N/N=C/c1sc(=O)n(-c2ccccc2)c1Cl	inconclusive: 18.1%

Ordered by count of non-hydrogen atoms (rising): 3 of the compounds above.
SMILES	inhibition
CN1CCC[C@@H]1CCO[C@](C)(c1ccccc1)c1ccc(Cl)cc1	inconclusive: 19.2%
COc1ccc(-c2c(C)oc3c(CN4CCOCC4)c(O)ccc3c2=O)cc1	inactive: 0.06%
CS(=O)(=O)N(CC(=O)NN=C1CCCCCC1)c1ccc(Oc2ccccc2)cc1	inactive: 0.37%
